The record followed here is patent US5972379A, “Liposome composition and method for administering a quinolone” (Sequus Pharmaceuticals, Inc., priority 1998, dated 1999).

For this test, the system named is E. coli. In words: Minimum inhibitory concentration, broth microdilution (NCCLS M7-A). The test is classed as cell-based. The note with it: Escherichia coli, inoculum 5×10^5 CFU/ml. The procedure: As described above, glycinyl-ciprofloxacin was prepared as set forth in Example 2A-2B and tested for antimicrobial activity in vitro, as described in Example 2C. The minimum inhibitory concentration of the drugs against the bacterial strains S. pyrogenes, E. faecalis, S. aureus, E. coli and P. aeruginosa were determined.
Minimum inhibitory concentrations were determined by a broth microdilution technique following the National Committee for Clinical Laboratory Standards guidelines (NCCLS document M7-A, National Committee for Laboratory Standards, Villanova, Pa., 1994 Approved Standard for "Methods for dilution antimicrobial susceptibility tests for bacteria that grow aerobically") with a starting inoculum of 5×10^5 CFU/ml.
(Dilution methods test growth across graded concentrations, often in twofold steps.)

As usually defined, the MIC is the lowest concentration found to suppress growth. A higher MIC goes with a need for much substance.

`O=C(O)c1cn(C2CC2)c2cc(N3CCNCC3)c(F)cc2c1=O` [ciprofloxacin, 1-cyclopropyl-6-fluoro-1,4-dihydro-4-oxo-7-(1-piperazinyl)-3-quinoline carboxylic acid]: the minimum inhibitory concentration (MIC) was < 0.5 µg/mL.
